We go through 52 molecules from US20160090556A1, “PRODUCTS COMPRISING MALODOR REDUCTION MATERIALS” (The Procter & Gamble Company, priority 2014, published 2016).

A short description of the data set: Melamine formaldehyde PMC leakage.
[1] abbreviates: class code letter within Comment Code.

Each structure is given as a SMILES string. Where two headings read alike, the source gives them in different places.

Turning to `CCC(=O)CCC1C(C)=CCCC1(C)C` (stereo not shown) [Material 293], under setting [1], the “Melamine formaldehyde PMC leakage (Comment Code J)” value is listed as “J (Melamine formaldehyde PMC leakage less than or equal to 5%)”.

On to `C=C(C)C1CCC(C)(OC(C)=O)CC1` (stereo not shown) [Material 611], for which the “Melamine formaldehyde PMC leakage (Comment Code J)” value was “J (Melamine formaldehyde PMC leakage less than or equal to 5%)”.

In the case of `CC1=CCCC2(C)CCC(=C(C)C)CC12` (stereo not shown) [Material 1031], the “Melamine formaldehyde PMC leakage (Comment Code J)” value is “J (Melamine formaldehyde PMC leakage less than or equal to 5%)”.

`C=CC(C)=CCC=C(C)CCC=C(C)C` [Material 710]: the “Melamine formaldehyde PMC leakage (Comment Code J)” value was “J (Melamine formaldehyde PMC leakage less than or equal to 5%)”.

With `CC(C)=CCCC1(C)C2CC3C(C2)C31C` (stereo not shown) [Material 693], the “Melamine formaldehyde PMC leakage (Comment Code J)” value is “J (Melamine formaldehyde PMC leakage less than or equal to 5%)”.

With `C=CCCC(=O)C1=CCCC2(CCCC2)C1` [Material 1038], the “Melamine formaldehyde PMC leakage (Comment Code J)” value was “J (Melamine formaldehyde PMC leakage less than or equal to 5%)”. For the setting “code letter J”, the “Comment Code: Melamine formaldehyde PMC leakage” value is on record as “J (Melamine formaldehyde PMC leakage less than or equal to 5%)”.

For `C=CC(C)=CCC=C(C)CCC=C(C)C=O` [Material 691], the “Melamine formaldehyde PMC leakage (Comment Code J)” value is “J (Melamine formaldehyde PMC leakage less than or equal to 5%)”.

Take `C=CCCCCCCCCO` [Material 470]: the “Melamine formaldehyde PMC leakage (Comment Code J)” value under setting [1] is on record as “J (Melamine formaldehyde PMC leakage less than or equal to 5%)”.

As for `CCC(C)(CCCC(C)C)OC(C)=O` (stereo not shown) [Material 1055], under “code letter J”, the “Comment Code: Melamine formaldehyde PMC leakage” value is “J (Melamine formaldehyde PMC leakage less than or equal to 5%)”.

As to `CCCCCCCCCCCCCCCC(=O)OCC` [Material 385], the “Melamine formaldehyde PMC leakage (Comment Code J)” value under setting [1] is recorded as “J (Melamine formaldehyde PMC leakage less than or equal to 5%)”.

For the molecule `CCCCC(CC)COC(=O)/C=C\c1ccc(OC)cc1` (stereo not shown) [Material 1], under setting [1], the “Melamine formaldehyde PMC leakage (Comment Code J)” value is “J (Melamine formaldehyde PMC leakage less than or equal to 5%)”.

With `CCC(=O)OC(C)c1ccccc1` (stereo not shown) [Material 96], the “Comment Code: Melamine formaldehyde PMC leakage” value (code letter J) is listed as “J (Melamine formaldehyde PMC leakage less than or equal to 5%)”.

Regarding `CC(C)=CCCC(C)(O)C1CC=C(C)CC1` (stereo not shown) [Material 718], the “Melamine formaldehyde PMC leakage (Comment Code J)” value was “J (Melamine formaldehyde PMC leakage less than or equal to 5%)”.

For `C=C1CC[C@@H]2[C@H]([C@H]3[C@H]1CC[C@]3(C)O)C2(C)C` [Material 1035], the “Melamine formaldehyde PMC leakage (Comment Code J)” value was “J (Melamine formaldehyde PMC leakage less than or equal to 5%)”. The “Comment Code: Melamine formaldehyde PMC leakage” value (code letter J) was “J (Melamine formaldehyde PMC leakage less than or equal to 5%)”.

As to `CC(C)=CCCC(C)=CCOC(=O)Cc1ccccc1` [Material 300], the “Melamine formaldehyde PMC leakage (Comment Code J)” value under setting [1] is listed as “J (Melamine formaldehyde PMC leakage less than or equal to 5%)”.

Turning to `CC=CCOCC/C=C\CC` [Material 19], the “Comment Code: Melamine formaldehyde PMC leakage” value (code letter J) is “J (Melamine formaldehyde PMC leakage less than or equal to 5%)”.

On to `CC12CCCC(O)(C1)C1CC(C)(C)C1CC2` (stereo not shown) [Material 574], for which the “Melamine formaldehyde PMC leakage (Comment Code J)” value is “J (Melamine formaldehyde PMC leakage less than or equal to 5%)”. Besides, the “Comment Code: Melamine formaldehyde PMC leakage” value (code letter J) is reported as “J (Melamine formaldehyde PMC leakage less than or equal to 5%)”.

With `CC1CC2CCC3C(C2O1)C(C)(C)C(C)C3(C)C` (stereo not shown) [Material 1097], the “Melamine formaldehyde PMC leakage (Comment Code J)” value is on record as “J (Melamine formaldehyde PMC leakage less than or equal to 5%)”. Also, the “Comment Code: Melamine formaldehyde PMC leakage” value (code letter J) is reported as “J (Melamine formaldehyde PMC leakage less than or equal to 5%)”.

For `CCOC(OCC)c1ccc2c(c1)OCO2` [Material 286], the “Melamine formaldehyde PMC leakage (Comment Code J)” value under setting [1] is given as “J (Melamine formaldehyde PMC leakage less than or equal to 5%)”.

As for `CC1=C(CCC(C)C=O)C(C)(C)CCC1` (stereo not shown) [Material 560], the “Melamine formaldehyde PMC leakage (Comment Code J)” value under setting [1] was “J (Melamine formaldehyde PMC leakage less than or equal to 5%)”.

`CCC(=O)N(CC)c1cccc(C)c1` [Material 755]: under “code letter J”, the “Comment Code: Melamine formaldehyde PMC leakage” value is “J (Melamine formaldehyde PMC leakage less than or equal to 5%)”.

For `CC(C)=CCCC1=CCC(C=O)CC1` (stereo not shown) [Material 211], the “Melamine formaldehyde PMC leakage (Comment Code J)” value under setting [1] was “J (Melamine formaldehyde PMC leakage less than or equal to 5%)”.

Consider `CC1=CCC2CC3C(C)CCC13C2(C)C` (stereo not shown) [Material 696], for which the “Melamine formaldehyde PMC leakage (Comment Code J)” value was “J (Melamine formaldehyde PMC leakage less than or equal to 5%)”. Moreover, the “Comment Code: Melamine formaldehyde PMC leakage” value (code letter J) is “J (Melamine formaldehyde PMC leakage less than or equal to 5%)”.

In the case of `CCCCCC(=Cc1ccccc1)COC(C)=O` [Material 722], the “Melamine formaldehyde PMC leakage (Comment Code J)” value is on record as “J (Melamine formaldehyde PMC leakage less than or equal to 5%)”.

For the molecule `CCCCCC(C=O)=Cc1ccccc1` [Material 724], the “Melamine formaldehyde PMC leakage (Comment Code J)” value was “J (Melamine formaldehyde PMC leakage less than or equal to 5%)”.

For `CCCCC/C=C/C=C\C(=O)OCC` [Material 942], the “Melamine formaldehyde PMC leakage (Comment Code J)” value was “J (Melamine formaldehyde PMC leakage less than or equal to 5%)”.

Regarding `CCCC(=O)OC(C)(C)Cc1ccccc1` [Material 432], the “Melamine formaldehyde PMC leakage (Comment Code J)” value under setting [1] is given as “J (Melamine formaldehyde PMC leakage less than or equal to 5%)”.

`CC(C)C(=O)OCCc1ccccc1` [Material 958]: under “code letter J”, the “Comment Code: Melamine formaldehyde PMC leakage” value is on record as “J (Melamine formaldehyde PMC leakage less than or equal to 5%)”.

With `C=CCc1cc(OC)c2c(c1)OCO2` [Material 37], the “Melamine formaldehyde PMC leakage (Comment Code J)” value under setting [1] is recorded as “J (Melamine formaldehyde PMC leakage less than or equal to 5%)”.

As for `CCCCCCC(=O)OCc1ccco1` [Material 339], under setting [1], the “Melamine formaldehyde PMC leakage (Comment Code J)” value is listed as “J (Melamine formaldehyde PMC leakage less than or equal to 5%)”.

Take `CCC(C)(O)CCc1ccccc1` (stereo not shown) [Material 731]: the “Melamine formaldehyde PMC leakage (Comment Code J)” value was “J (Melamine formaldehyde PMC leakage less than or equal to 5%)”.

As for `CCC=CCC=CC=CC(=O)OCC` [Material 1000], the “Melamine formaldehyde PMC leakage (Comment Code J)” value is on record as “J (Melamine formaldehyde PMC leakage less than or equal to 5%)”.

For `CC1=CC[C@@H]2C3CC([C@@H]2C1)[C@@]1(C3)OC1C` (stereo partly shown) [Material 1007], the “Melamine formaldehyde PMC leakage (Comment Code J)” value is “J (Melamine formaldehyde PMC leakage less than or equal to 5%)”. For the same molecule, where the note is “code letter J”, the “Comment Code: Melamine formaldehyde PMC leakage” value is on record as “J (Melamine formaldehyde PMC leakage less than or equal to 5%)”.

As to `C=C1CCC2C3C(C(C)C)CCC2(C)C13` (stereo not shown) [Material 631], the “Melamine formaldehyde PMC leakage (Comment Code J)” value is “J (Melamine formaldehyde PMC leakage less than or equal to 5%)”. Besides, under “code letter J”, the “Comment Code: Melamine formaldehyde PMC leakage” value is on record as “J (Melamine formaldehyde PMC leakage less than or equal to 5%)”.

In the case of `c1ccc(COCc2ccccc2)cc1` [Material 454], where the note is “code letter J”, the “Comment Code: Melamine formaldehyde PMC leakage” value is “J (Melamine formaldehyde PMC leakage less than or equal to 5%)”.

Take `CCCCCCCCCC=CC=O` [Material 806]: the “Melamine formaldehyde PMC leakage (Comment Code J)” value is on record as “J (Melamine formaldehyde PMC leakage less than or equal to 5%)”.

With `CC(C)Cc1ccc(CC(C)C=O)cc1` (stereo not shown) [Material 1033], the “Melamine formaldehyde PMC leakage (Comment Code J)” value is given as “J (Melamine formaldehyde PMC leakage less than or equal to 5%)”.

`CC1(C)CCC[C@@]2(C)[C@H]1CC[C@]13CO[C@](C)(CC[C@@H]12)O3` [Material 678]: the “Melamine formaldehyde PMC leakage (Comment Code J)” value was “J (Melamine formaldehyde PMC leakage less than or equal to 5%)”. Also, the “Comment Code: Melamine formaldehyde PMC leakage” value (code letter J) was “J (Melamine formaldehyde PMC leakage less than or equal to 5%)”.

For the molecule `C=C(C)C1CC=C(COC(C)=O)CC1` (stereo not shown) [Material 947], the “Melamine formaldehyde PMC leakage (Comment Code J)” value is on record as “J (Melamine formaldehyde PMC leakage less than or equal to 5%)”.

Turning to `CCC=CCCOC(=O)C(C)C` [Material 1125], the “Comment Code: Melamine formaldehyde PMC leakage” value (code J of the Comment Code column, Table 1) was “J (Melamine formaldehyde PMC leakage less than or equal to 5%)”.

Turning to `CC1(C)CCCC2=C1CC(C=O)CC2` (stereo not shown) [Material 486], the “Melamine formaldehyde PMC leakage (Comment Code J)” value under setting [1] was “J (Melamine formaldehyde PMC leakage less than or equal to 5%)”.

Take `CC(C)=CCCC(C)=CCCc1ccncc1` [Material 135]: under setting [1], the “Melamine formaldehyde PMC leakage (Comment Code J)” value is reported as “J (Melamine formaldehyde PMC leakage less than or equal to 5%)”.

As for `CC(=O)C1CC/C(C)=C\CC/C(C)=C\C/C=C/1C` (stereo not shown) [Material 1095], the “Melamine formaldehyde PMC leakage (Comment Code J)” value is given as “J (Melamine formaldehyde PMC leakage less than or equal to 5%)”.

As for `CC1=CCCC2(C)CCC(C(C)(C)O)CC12` (stereo not shown) [Material 712], the “Melamine formaldehyde PMC leakage (Comment Code J)” value is on record as “J (Melamine formaldehyde PMC leakage less than or equal to 5%)”. Besides, the “Comment Code: Melamine formaldehyde PMC leakage” value (code letter J) is reported as “J (Melamine formaldehyde PMC leakage less than or equal to 5%)”.

With `CCCCCC/C=C/C(=O)OC` [Material 67], under setting [1], the “Melamine formaldehyde PMC leakage (Comment Code J)” value is on record as “J (Melamine formaldehyde PMC leakage less than or equal to 5%)”.

On to `CC(C)C(=O)OC1CC2CC1C1C=CCC21` (stereo not shown) [Material 487], for which the “Melamine formaldehyde PMC leakage (Comment Code J)” value under setting [1] is recorded as “J (Melamine formaldehyde PMC leakage less than or equal to 5%)”. In addition, the “Comment Code: Melamine formaldehyde PMC leakage” value (code letter J) was “J (Melamine formaldehyde PMC leakage less than or equal to 5%)”.

For the molecule `O=C1CCCCCCC/C=C\CCCCCCO1` [Material 529], the “Melamine formaldehyde PMC leakage (Comment Code J)” value under setting [1] is listed as “J (Melamine formaldehyde PMC leakage less than or equal to 5%)”.

Regarding `CC1=CCCC2(C)CCC(C(C)(C)O)CC12` (stereo not shown) [Material 775], the “Melamine formaldehyde PMC leakage (Comment Code J)” value is on record as “J (Melamine formaldehyde PMC leakage less than or equal to 5%)”. For the same molecule, for the setting “code letter J”, the “Comment Code: Melamine formaldehyde PMC leakage” value was “J (Melamine formaldehyde PMC leakage less than or equal to 5%)”.

For `c1ccc(CCCc2ccccn2)cc1` [Material 497], the “Melamine formaldehyde PMC leakage (Comment Code J)” value under setting [1] is “J (Melamine formaldehyde PMC leakage less than or equal to 5%)”.

Take `CC1CCC2=C1CC1CCC2(C)C1(C)C` (stereo not shown) [Material 621]: the “Melamine formaldehyde PMC leakage (Comment Code J)” value is recorded as “J (Melamine formaldehyde PMC leakage less than or equal to 5%)”. Also, where the note is “code letter J”, the “Comment Code: Melamine formaldehyde PMC leakage” value was “J (Melamine formaldehyde PMC leakage less than or equal to 5%)”.

As to `C=CCCCCCCCCC(=O)OCCC(C)C` [Material 234], the “Melamine formaldehyde PMC leakage (Comment Code J)” value under setting [1] is “J (Melamine formaldehyde PMC leakage less than or equal to 5%)”.

Regarding `CCOC(=O)OC1C(C)CCC(C)C1C` (stereo not shown) [Material 1005], the “Comment Code: Melamine formaldehyde PMC leakage” value (code letter J) is recorded as “J (Melamine formaldehyde PMC leakage less than or equal to 5%)”.
